Amino acid sequences for entries named in this document (tags omitted).
UniProt P51140: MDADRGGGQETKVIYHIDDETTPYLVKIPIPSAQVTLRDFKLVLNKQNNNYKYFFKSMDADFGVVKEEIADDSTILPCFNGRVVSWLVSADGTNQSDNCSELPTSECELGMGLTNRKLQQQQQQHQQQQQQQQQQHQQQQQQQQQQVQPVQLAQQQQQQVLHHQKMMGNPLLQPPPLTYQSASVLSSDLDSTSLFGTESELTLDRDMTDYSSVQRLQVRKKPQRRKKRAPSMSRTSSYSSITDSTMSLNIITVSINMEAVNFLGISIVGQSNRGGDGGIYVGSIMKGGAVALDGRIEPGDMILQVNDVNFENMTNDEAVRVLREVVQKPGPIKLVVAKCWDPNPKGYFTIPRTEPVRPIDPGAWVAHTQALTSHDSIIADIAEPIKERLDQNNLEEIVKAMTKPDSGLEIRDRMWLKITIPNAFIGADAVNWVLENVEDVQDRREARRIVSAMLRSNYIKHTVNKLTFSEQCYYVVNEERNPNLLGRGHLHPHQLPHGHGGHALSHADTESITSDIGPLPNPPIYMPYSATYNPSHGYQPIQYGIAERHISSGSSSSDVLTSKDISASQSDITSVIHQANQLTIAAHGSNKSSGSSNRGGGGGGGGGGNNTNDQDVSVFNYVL
UniProt O97159: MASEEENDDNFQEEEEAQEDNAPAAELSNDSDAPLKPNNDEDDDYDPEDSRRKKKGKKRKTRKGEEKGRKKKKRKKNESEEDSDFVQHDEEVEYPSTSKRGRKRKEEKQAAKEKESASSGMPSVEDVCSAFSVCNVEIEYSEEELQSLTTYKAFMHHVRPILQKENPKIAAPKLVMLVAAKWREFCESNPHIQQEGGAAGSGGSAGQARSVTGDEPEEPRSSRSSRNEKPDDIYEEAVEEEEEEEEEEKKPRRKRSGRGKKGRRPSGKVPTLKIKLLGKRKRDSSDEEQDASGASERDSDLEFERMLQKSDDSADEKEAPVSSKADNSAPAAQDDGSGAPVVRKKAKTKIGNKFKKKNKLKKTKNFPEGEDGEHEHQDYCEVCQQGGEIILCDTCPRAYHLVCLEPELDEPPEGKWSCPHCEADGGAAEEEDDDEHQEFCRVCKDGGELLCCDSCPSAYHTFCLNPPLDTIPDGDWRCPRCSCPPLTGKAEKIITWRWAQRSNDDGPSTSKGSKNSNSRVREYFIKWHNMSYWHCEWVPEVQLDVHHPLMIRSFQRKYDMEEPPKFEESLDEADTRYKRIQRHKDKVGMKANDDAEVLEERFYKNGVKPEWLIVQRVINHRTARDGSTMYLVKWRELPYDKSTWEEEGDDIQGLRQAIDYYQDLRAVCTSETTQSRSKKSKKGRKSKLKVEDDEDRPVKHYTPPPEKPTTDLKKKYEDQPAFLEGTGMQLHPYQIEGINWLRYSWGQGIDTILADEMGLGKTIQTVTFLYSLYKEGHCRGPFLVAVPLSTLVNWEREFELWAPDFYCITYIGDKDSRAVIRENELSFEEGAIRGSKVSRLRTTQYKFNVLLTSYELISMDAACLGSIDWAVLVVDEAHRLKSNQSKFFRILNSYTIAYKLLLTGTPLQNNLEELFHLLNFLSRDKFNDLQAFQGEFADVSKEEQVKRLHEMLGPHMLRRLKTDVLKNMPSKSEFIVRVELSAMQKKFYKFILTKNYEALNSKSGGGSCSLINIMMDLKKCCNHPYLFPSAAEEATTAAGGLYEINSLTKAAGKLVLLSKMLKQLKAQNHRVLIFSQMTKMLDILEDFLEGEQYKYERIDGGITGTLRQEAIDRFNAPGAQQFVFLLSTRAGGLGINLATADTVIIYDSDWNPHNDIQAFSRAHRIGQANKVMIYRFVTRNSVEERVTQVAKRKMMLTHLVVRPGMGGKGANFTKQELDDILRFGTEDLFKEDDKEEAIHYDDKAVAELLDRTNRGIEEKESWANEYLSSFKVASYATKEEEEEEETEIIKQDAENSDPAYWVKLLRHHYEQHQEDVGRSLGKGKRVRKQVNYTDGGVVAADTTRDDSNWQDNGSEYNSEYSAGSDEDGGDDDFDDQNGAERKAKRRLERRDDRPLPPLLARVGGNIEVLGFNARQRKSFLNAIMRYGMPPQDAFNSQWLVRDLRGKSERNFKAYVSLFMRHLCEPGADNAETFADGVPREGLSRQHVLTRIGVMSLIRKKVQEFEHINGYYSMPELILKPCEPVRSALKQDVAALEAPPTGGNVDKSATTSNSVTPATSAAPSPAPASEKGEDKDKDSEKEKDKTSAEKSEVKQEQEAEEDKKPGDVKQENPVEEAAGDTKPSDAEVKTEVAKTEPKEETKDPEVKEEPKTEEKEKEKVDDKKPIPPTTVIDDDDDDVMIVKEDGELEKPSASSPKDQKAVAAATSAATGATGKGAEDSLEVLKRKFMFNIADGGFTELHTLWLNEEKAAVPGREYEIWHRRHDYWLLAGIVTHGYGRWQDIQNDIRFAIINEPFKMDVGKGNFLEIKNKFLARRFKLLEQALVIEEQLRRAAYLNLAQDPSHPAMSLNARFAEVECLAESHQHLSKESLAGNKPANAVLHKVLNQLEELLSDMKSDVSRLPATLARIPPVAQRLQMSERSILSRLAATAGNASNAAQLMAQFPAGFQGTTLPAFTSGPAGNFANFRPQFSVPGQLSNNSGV
UniProt Q9VHP0: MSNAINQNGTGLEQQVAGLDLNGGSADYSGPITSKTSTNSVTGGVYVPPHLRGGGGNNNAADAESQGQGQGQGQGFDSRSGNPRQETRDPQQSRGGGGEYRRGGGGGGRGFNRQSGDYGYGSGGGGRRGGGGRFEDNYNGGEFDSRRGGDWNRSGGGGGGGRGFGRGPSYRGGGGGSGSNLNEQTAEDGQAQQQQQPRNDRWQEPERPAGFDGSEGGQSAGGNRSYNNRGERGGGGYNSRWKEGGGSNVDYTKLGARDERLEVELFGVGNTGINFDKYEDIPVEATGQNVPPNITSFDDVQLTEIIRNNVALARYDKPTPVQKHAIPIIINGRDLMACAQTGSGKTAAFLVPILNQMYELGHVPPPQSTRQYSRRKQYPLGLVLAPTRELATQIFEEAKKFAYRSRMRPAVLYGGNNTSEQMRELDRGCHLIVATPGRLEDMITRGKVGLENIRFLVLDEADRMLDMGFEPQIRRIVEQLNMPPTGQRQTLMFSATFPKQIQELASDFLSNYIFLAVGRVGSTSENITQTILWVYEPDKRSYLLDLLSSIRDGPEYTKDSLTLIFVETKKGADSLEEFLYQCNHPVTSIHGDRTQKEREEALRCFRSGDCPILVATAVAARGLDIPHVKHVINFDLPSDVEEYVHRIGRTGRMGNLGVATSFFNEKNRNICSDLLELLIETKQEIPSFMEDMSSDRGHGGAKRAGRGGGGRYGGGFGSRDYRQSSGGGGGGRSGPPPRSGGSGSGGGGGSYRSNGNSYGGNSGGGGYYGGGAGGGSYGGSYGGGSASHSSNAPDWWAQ
UniProt P25439: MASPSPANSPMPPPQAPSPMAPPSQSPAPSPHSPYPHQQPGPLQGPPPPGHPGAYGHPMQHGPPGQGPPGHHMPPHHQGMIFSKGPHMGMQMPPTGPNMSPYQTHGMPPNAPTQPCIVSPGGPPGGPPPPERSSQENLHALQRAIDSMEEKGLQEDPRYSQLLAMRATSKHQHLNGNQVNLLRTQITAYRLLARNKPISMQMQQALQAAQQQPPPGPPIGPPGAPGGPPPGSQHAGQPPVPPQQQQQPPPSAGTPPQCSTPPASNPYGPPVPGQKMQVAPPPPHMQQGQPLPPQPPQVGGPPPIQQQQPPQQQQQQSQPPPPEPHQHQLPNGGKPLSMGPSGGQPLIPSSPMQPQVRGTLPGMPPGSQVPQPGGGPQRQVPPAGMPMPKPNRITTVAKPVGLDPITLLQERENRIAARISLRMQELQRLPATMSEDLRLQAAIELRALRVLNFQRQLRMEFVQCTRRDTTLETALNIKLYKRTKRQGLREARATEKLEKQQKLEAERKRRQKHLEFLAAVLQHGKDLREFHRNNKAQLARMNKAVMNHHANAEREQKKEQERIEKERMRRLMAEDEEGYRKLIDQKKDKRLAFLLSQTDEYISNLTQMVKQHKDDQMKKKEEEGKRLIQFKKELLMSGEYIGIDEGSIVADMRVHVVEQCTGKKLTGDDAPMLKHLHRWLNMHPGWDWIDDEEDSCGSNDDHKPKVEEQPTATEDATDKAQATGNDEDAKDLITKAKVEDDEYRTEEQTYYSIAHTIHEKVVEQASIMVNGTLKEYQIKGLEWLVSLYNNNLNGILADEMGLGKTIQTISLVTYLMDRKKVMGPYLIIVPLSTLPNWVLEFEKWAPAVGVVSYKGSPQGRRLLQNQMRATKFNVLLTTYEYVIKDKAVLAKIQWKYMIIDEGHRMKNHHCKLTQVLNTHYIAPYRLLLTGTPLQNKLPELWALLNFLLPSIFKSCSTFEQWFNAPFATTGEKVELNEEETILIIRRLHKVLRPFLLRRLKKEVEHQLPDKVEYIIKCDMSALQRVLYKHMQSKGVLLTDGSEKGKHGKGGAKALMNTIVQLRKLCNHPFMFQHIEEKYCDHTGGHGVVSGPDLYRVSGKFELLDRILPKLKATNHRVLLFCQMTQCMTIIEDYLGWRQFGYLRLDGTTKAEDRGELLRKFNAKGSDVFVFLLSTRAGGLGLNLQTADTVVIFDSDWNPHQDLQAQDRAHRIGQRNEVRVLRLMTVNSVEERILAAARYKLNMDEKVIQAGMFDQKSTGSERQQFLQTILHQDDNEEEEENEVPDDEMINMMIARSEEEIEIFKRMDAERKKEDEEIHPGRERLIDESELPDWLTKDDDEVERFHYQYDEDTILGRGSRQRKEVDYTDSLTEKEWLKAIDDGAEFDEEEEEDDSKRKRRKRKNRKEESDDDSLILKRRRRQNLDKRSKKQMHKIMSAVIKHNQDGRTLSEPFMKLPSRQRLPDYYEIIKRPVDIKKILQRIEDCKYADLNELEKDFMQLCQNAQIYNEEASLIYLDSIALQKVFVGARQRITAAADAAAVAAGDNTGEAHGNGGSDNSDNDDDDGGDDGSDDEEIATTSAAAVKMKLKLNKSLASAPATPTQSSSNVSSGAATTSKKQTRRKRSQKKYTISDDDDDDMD
UniProt A0A0B4JDA0: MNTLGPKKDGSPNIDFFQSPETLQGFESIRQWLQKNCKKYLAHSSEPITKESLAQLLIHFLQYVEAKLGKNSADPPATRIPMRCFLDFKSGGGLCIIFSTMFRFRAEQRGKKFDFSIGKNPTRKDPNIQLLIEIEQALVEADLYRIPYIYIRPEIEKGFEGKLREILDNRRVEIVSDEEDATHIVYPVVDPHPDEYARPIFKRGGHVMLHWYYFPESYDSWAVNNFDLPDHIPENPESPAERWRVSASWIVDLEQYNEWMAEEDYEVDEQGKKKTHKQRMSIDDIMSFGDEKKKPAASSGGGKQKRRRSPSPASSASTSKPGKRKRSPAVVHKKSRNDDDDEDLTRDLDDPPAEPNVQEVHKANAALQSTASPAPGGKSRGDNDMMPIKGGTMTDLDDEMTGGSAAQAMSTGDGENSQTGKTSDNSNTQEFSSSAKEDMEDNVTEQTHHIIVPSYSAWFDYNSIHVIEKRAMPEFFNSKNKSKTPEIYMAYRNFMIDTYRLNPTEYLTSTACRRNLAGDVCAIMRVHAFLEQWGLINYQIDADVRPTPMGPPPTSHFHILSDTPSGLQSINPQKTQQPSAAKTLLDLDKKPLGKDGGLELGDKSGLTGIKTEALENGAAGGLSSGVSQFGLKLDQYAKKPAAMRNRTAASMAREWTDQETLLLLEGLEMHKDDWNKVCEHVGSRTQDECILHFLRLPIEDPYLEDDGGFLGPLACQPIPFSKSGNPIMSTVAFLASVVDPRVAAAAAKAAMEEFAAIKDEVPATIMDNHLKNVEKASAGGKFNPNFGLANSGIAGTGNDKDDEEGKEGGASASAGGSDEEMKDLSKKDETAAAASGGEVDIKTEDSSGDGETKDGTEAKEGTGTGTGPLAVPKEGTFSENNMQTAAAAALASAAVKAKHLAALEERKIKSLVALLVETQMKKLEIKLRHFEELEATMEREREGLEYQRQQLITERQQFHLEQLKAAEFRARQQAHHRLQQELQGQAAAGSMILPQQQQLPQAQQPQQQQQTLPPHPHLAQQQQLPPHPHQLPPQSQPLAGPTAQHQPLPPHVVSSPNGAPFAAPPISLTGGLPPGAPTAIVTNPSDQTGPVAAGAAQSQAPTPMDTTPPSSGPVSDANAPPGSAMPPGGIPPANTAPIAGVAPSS

In article PMC7075897:

Experiments:
[1] = biological target: T1, Usp fused to APEX2 through a 25 nm GS linker, marked with 3xFLAG (Drosophila melanogaster) (UniProt P20153); assay: proximity labelling; APEX2 fusions or APEX2 alone in S2 cells, 20E or DMSO 1 h; streptavidin precipitates of nuclear lysates analysed by western blot
T1 sequence: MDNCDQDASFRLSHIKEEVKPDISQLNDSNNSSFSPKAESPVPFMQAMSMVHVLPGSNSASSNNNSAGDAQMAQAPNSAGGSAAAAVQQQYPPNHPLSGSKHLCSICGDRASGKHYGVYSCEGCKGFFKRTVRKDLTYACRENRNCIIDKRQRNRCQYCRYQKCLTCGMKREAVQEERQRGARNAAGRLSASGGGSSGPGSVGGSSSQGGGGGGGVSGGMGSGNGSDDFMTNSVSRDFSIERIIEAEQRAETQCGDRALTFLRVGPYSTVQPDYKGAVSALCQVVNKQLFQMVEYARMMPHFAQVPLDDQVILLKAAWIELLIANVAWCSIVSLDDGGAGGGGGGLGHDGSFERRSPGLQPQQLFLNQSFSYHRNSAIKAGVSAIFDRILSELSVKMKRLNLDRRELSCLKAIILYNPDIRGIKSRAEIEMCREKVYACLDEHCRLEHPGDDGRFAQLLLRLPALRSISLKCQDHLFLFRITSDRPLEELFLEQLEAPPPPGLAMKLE

[2] = biological target: T2, EcR (isoform A) fused to APEX2 through a 25 nm GS linker, marked with 3xFLAG (Drosophila melanogaster) (UniProt P34021); assay: as above
T2 sequence: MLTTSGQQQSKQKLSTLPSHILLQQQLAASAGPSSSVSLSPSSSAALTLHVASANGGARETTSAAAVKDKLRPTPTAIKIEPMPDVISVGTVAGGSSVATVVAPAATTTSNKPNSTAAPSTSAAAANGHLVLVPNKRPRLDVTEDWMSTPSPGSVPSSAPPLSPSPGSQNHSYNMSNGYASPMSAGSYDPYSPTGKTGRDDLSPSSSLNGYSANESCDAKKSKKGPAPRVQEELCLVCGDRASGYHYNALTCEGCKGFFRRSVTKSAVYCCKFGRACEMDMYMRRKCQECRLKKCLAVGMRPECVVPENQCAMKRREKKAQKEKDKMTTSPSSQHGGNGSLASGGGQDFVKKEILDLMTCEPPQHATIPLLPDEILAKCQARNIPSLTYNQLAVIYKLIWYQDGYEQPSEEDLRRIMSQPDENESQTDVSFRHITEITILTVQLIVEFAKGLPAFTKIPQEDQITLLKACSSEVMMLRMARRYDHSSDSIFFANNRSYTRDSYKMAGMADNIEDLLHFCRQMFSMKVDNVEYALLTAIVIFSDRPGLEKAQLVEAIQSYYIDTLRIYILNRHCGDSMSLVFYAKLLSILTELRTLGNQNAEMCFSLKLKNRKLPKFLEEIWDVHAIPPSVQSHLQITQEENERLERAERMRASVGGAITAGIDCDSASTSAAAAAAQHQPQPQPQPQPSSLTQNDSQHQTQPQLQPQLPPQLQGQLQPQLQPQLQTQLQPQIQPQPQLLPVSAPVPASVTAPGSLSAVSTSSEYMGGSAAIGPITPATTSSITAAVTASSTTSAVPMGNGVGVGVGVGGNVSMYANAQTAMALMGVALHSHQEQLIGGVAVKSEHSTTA

[3] = biological target: T1, Usp fused to APEX2 through a 25 nm GS linker, marked with 3xFLAG (Drosophila melanogaster); assay: proximity labelling; APEX2 fused to EcR or Usp, stably expressed in S2 cells; 20E or DMSO 1 h, biotin-phenol 30 min, 1 mM H2O2 5 min; nuclear extract, Streptavidin-Agarose precipitation, LC-MS/MS
[4] = biological target: T2, EcR (isoform A) fused to APEX2 through a 25 nm GS linker, marked with 3xFLAG (Drosophila melanogaster); assay: as above
[5] = biological target: T3, Usp fused to BioID2 through a 25 nm GS linker, marked with 3xFLAG (Drosophila melanogaster) (UniProt P20153); assay: proximity labelling; BioID2 fused to EcR or Usp, stably expressed in S2 cells; biotin 50 nM, 20E or DMSO for 14 h; nuclear extract, Streptavidin-Agarose precipitation, LC-MS/MS
T3 sequence: T1 sequence

[6] = biological target: T4, EcR (isoform A) fused to BioID2 through a 25 nm GS linker, marked with 3xFLAG (Drosophila melanogaster) (UniProt P34021); assay: as above
T4 sequence: T2 sequence

[7] = biological target: T3, Usp fused to BioID2 through a 25 nm GS linker, marked with 3xFLAG (Drosophila melanogaster); assay: proximity labelling; BioID2 fusions or BioID2 alone in S2 cells, 20E or DMSO 14 h; streptavidin precipitates of nuclear lysates analysed by western blot
[8] = biological target: T4, EcR (isoform A) fused to BioID2 through a 25 nm GS linker, marked with 3xFLAG (Drosophila melanogaster); assay: as above

Substance	binding [3]	binding [4]	binding [6]	further results
CG4119 (from UniProt Q9V3Y5)	binds	binds		
CtBP (from UniProt O46036 1-476)			binds	binding [5]: binds
Dsh (from UniProt P51140 1-623)			binds	binding [5]: binds
E(bx) (from UniProt E1JHV6)	binds			
Kismet (from UniProt B7Z002 1-5517)	binds			
Mi-2 (from UniProt O97159 1-1982)		binds		binding [2]: binds
Nup205 (from UniProt Q8IQV9 1-2090)	binds	binds		
Nup214 (from UniProt Q9W1X4 1-1711)			binds	binding [5]: binds
Osa (from UniProt Q8IN94 1-2716)	binds	binds		
RPII215 (from UniProt D0Z769)	binds	binds		
Sin3a (from UniProt A0A0B4K765 1-2066)	binds	binds		
Spt5 (from UniProt Q9V460 1-1078)				binding [1]: binds; binding [2]: binds
Spt6 (from UniProt Q9W420 1-1831)	binds	binds		
bel (from UniProt Q9VHP0 1-798)			binds	
hyd (from UniProt P51592 1-2885)	binds	binds		

Second part, led by results:

binding [3]	binding [4]	binding [6]	Substance	further results
binds			Brm (from UniProt P25439 1-1638)	binding [1]: binds; binding [2]: binds
		binds	CG14712 (from UniProt Q9VGL0)	binding [5]: binds
binds		binds	Mor (from UniProt A0A0B4JDA0 1-1145)	binding [1]: binds; binding [2]: binds; binding [5]: binds; binding [7]: binds; binding [8]: binds
binds	binds		Nipped-B (from UniProt Q7PLI2 1-2077)	
binds	binds		Prp8 (from UniProt A1Z8U0 1-2396)	
		binds	Rm62 (from UniProt P19109 1-719)	binding [5]: binds
binds	binds		Rpd3 (from UniProt Q94517 1-521)	
binds	binds		l(3)72Ab (from UniProt Q9VUV9 1-2142)	

No constants are given. Whether binding was seen depends on the method and setting. In cells and extracts the contact can be indirect. These calls come from enrichment with a bait or labelling near it, and not all partners need be listed. Where a sequence is shown, tags or fusion partners need not be part of it.
